This experiment addresses T1, WT BEST1-CFP-Myc (human) (UniProt O76090).
T1 sequence (looked up): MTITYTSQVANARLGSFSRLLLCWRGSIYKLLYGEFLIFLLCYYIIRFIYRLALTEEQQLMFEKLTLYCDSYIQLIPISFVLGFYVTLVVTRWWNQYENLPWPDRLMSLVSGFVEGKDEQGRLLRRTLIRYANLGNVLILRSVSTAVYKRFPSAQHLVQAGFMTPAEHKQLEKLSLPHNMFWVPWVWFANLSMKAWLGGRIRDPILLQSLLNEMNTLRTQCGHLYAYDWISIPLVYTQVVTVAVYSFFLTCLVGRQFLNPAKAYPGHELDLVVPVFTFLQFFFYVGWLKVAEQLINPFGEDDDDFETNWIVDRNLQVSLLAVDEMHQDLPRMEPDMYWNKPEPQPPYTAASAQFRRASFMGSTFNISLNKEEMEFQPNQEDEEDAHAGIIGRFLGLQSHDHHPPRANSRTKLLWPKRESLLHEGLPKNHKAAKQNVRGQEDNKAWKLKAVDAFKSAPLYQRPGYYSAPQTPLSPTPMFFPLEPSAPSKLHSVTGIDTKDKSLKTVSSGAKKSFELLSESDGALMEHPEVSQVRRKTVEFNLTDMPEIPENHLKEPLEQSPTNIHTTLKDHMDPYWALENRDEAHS
The experiment in a line: co-immunoprecipitation with anti-Myc antibody from co-transfected HEK293 cells, immunoblot anti-His/anti-Myc.

Where a chain is given by its changes, count along the chain named. Names may count otherwise. These are yes or no findings as the source states them, for the method shown. In cells and extracts the contact can be indirect. Some entries that bind do so weakly or less than the wild type. Sequences can lack the tags named with a protein.

B1: BEST1 D203A-YFP-His (protein, human, UniProt O76090 1-585, looked up, not shown: large carriers; small tags and cut ends)
chain: T1 sequence (looked up) with D203A
With B1, the binding entry is reported as “binds”.

B2: BEST1 Y236C-YFP-His (protein, human, UniProt O76090 1-585, looked up, not shown: large carriers; small tags and cut ends)
chain: T1 sequence (looked up) with Y236C
Take B2: the binding entry is recorded as “binds”.

B3: BEST1 I205T-YFP-His (protein, human, UniProt O76090 1-585, looked up, not shown: large carriers; small tags and cut ends)
chain: T1 sequence (looked up) with I205T
In the case of B3, the binding entry is listed as “binds”.
